PubChem BioAssay AID1259254 | NCATS – 2017
Here is one part, drawn at random, of about 59,000 deposited reagents. Over the whole deposit, about 1,550 (2.6%) got an active call. 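G2 share is only a proxy for re-replication; each gene was hit by three separate siRNAs, and active genes were retested.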 Reagents against one gene are numbered here. Further read-outs or replicates are left out here. Not given: the amount of reagent.

- Test: 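Finding genes that stop cells copying their DNA twice in one cycle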 (primary screen)
- System: human HCT116 colorectal cancer cells
- Knock-down reagent: single siRNA against human genes
- Timing: 3 days
- Measurement: 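Nuclei stained with Hoechst and imaged; cell-cycle phase assigned by DNA content; G2 share scaled per plate, non-targeting siRNA 0%, GMNN siRNA 100%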
- Direction: G2 robust z-score: higher = more G2 cells, more excess DNA replication
- Active means: 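An siRNA counts as active if its G2 robust z-score lies at least 5 MADs above the screen median; here such calls match roughly 38% of GMNN control or more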

With DRD2 (dopamine receptor D2) #1, what does the deposit list?
G2 robust z-score: -0.205; Outcome: inactive

With DRD2 (dopamine receptor D2) #2, how do the results read?
G2 robust z-score: -0.813; Outcome: inactive

For DRD2 (dopamine receptor D2) #3, what was measured?
G2 robust z-score: -0.95; Outcome: inactive

Which result is listed for KLHL26 (kelch like family member 26) #1?
G2 robust z-score: 5.06; Outcome: active

What did the screen give for KLHL26 (kelch like family member 26) #2?
G2 robust z-score: 0.0293; Outcome: inactive

What did the screen give for KLHL26 (kelch like family member 26) #3?
G2 robust z-score: -1.06; Outcome: inactive

For SEMA6C (semaphorin 6C) #1, what does the deposit list?
G2 robust z-score: 0.675; Outcome: inactive

Which result is listed for SEMA6C (semaphorin 6C) #2?
G2 robust z-score: 0.241; Outcome: inactive

What did the screen give for SEMA6C (semaphorin 6C) #3?
G2 robust z-score: 3.53; Outcome: inactive

Which result is listed for AMY1A (amylase alpha 1A) #1?
G2 robust z-score: -0.686; Outcome: inactive

With AMY1A (amylase alpha 1A) #2, how do the results read?
G2 robust z-score: -0.223; Outcome: inactive

For AMY1A (amylase alpha 1A) #3, what does the deposit list?
G2 robust z-score: 0.677; Outcome: inactive

2 entries from above in another layout.
gene knocked down	siRNA no.	G2 robust z-score	Outcome
KLHL26 (kelch like family member 26)	2	0.0293	inactive
KLHL26 (kelch like family member 26)	3	-1.06	inactive

Next records follow.
With SLC35H1 #1, how do the results read?
G2 robust z-score: 0.595; Outcome: inactive

Which result is listed for SLC35H1 #2?
G2 robust z-score: 3.81; Outcome: inactive

For SLC35H1 #3, how do the results read?
G2 robust z-score: 2.38; Outcome: inactive

For S100A2 (S100 calcium binding protein A2) #1, how do the results read?
G2 robust z-score: -0.0292; Outcome: inactive

How did the screen score S100A2 (S100 calcium binding protein A2) #2?
G2 robust z-score: 0.618; Outcome: inactive

What is on record for S100A2 (S100 calcium binding protein A2) #3?
G2 robust z-score: 4.7; Outcome: inactive

With ZNF580 (zinc finger protein 580) #1, what was measured?
G2 robust z-score: 0.966; Outcome: inactive

With ZNF580 (zinc finger protein 580) #2, how do the results read?
G2 robust z-score: -1.04; Outcome: inactive

Which result is listed for ZNF580 (zinc finger protein 580) #3?
G2 robust z-score: 0.0256; Outcome: inactive

With DOCK11 (dedicator of cytokinesis 11) #1, how do the results read?
G2 robust z-score: -0.613; Outcome: inactive

Which result is listed for DOCK11 (dedicator of cytokinesis 11) #2?
G2 robust z-score: 5.14; Outcome: active

How did the screen score DOCK11 (dedicator of cytokinesis 11) #3?
G2 robust z-score: 0.709; Outcome: inactive
